Earlier results, collected in patent publication US4760029A, “Assay for D-1 antagonistic activity of neuroleptic drugs” (Schering Corporation, priority 1984, dated 1988).

Tested on: D-1 receptor
Details: Life Sciences 23, 551 (1978)

Substance: ^3 H-cis-(Z)-flupentixol [^3 H-flupentixol]
- non-specific binding as share of total binding: ~74%

Substance: ^3 H-cis-(Z)-piflutixol [^3 H-piflutixol]
- non-specific binding as share of total binding: about 66%
